For at least one compound, name, drawing or mass did not settle the structure.
What was measured:
[1] = test system: BLM-induced pulmonary fibrosis; assay: Bleomycin-induced lung fibrosis mouse model; format: in vivo; conditions: 14 days, Nintedanib 60 mg/kg/day, WRG-28 5 mg/kg/day, Av 5 mg/kg/day
From the text: A Bleomycin (BLM)-induced lung fibrosis mouse model was used, and the timelines of operation and drug delivery are depicted in FIG. 11A. […] The hydroxyproline content, serving as a marker of collagen deposition, was extracted from the right lobe and analyzed; the results are shown in FIG. 11C. FIG. 11D depicts histological analysis derived from the left lobe, quantifying the fibrotic area through staining with Masson's Trichrome and Picrosirius red, respectively.
8-to-10-week-old male WT (C57BL/6) mice received intratracheal instillation of bleomycin (bleocin; Nippon Kayaku) at the dose of 3 mg/kg diluted in PBS or PBS only (sham). To study fibrosis, lung samples were collected on day 21 for further analysis.
Lung function was assessed using the flexi Vent system (Scireq, Montreal, QC, Canada). Mice were tracheostomized and ventilated at a rate of 150 breaths/min, tidal volume of 10 ml/kg, and a positive end-expiratory pressure (PEEP) of 2-3 cmH2O. A deep inflation perturbation was used to estimate the inspiratory capacity (IC). Pressure-Volume loops were generated by constant increasing pressure, followed by regular decreasing pressure. Other lung function parameters like resistance, compliance, and elastance were measured by using SnapShot-150.
Levels of hydroxyproline in lung tissues were measured using the Hydroxyproline Colorimetric Assay kit (BioVision, Milpitas, CA, USA). […] Then, 10 μL of individual samples were used to quantify the absorbance at 560 nm. […]
Mouse left lungs were fixed overnight in 4% paraformaldehyde (PFA), embedded in paraffin, and sectioned in 5 μm thickness for picrosirius red (Abcam, Cambridge, UK) and Masson's trichrome staining (Sigma Aldrich, MO, USA). Measurement of fibrotic area was quantified using ImageJ software (NIH, http://rsbweb.nih.gov/ij/).
The efficacy of WRG-28 and Av in treating pulmonary fibrosis was examined in vivo using a BLM-induced pulmonary fibrosis mouse model for evaluation. […] Histological analysis was conducted through staining techniques to quantify the fibrotic area.

Protein sequences, listed by entry. Tags and fused reporters are not part of them.
UniProt Q96D31, whole entry: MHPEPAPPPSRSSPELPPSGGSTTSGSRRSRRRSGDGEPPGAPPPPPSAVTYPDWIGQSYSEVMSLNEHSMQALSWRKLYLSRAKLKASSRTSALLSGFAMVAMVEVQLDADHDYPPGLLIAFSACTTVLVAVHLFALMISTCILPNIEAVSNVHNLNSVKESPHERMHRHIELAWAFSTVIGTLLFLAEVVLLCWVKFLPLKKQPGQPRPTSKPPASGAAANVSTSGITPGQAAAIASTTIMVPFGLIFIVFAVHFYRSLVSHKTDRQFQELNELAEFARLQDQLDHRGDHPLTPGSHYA

CRAC channel = CRAC channel (Homo sapiens, UniProt Q96D31); assay: SOCE in T cells; format: cell-based; parameters: endogenous in cells; host or cells: HEK293T; conditions: 10 μM
Method: The effects of BTP2, WRG-28, Av, and CM-4620 on SOCE were evaluated in T cells (FIG. 4A) and macrophages (FIG. 4E). Cells were cultured on glass-bottom 96-well plates and pretreated with various compounds (10 μM) while being loaded with Fura 2-AM. Subsequently, the cytosolic calcium signal waves were recorded, and the second peak of each wave and rate of entry were assessed. Each bar represents the mean value derived from, 43 to 111 cells for T cells (FIG. 4A), and 52 to 91 cells for macrophages (FIG. 4E). Cytokine induction in T cells and macrophages was conducted as described in the methods section. The levels of cytokines, including IL-2, TNF-α, and IL-6 in the culture medium were assessed using ELISA kits for T cells (FIG. 4B, FIG. 4C, and FIG. 4D) and macrophages (FIG. 4F, FIG. 4G, and FIG. 4H), respectively. Each bar represents the mean±SEM. In all the graphs, *, **, and *** denote p-values of <0.05, 0.01, and 0.001, respectively. […]
Cells cultured on a glass-bottom 96 well plate for 48 hours were treated with different compounds (10 μM) and Fura 2-AM (1 μM) simultaneously in a solution containing 145 mM NaCl, 2.8 mM KCl, 2 mM CaCl2, 2 mM MgCl2, 10 mM D-glucose, 10 mM HEPES, pH 7.4 for 40 minutes in the dark. […] All the images were analyzed by using IGOR Pro software. […]

Q: Which “BLM-induced changes in lung function (capacity, compliance, resistance, elastance)” value ([1]; day 21) does the source give for `O=C1C(O)=C([C@H]2CC[C@H](c3ccc(Cl)cc3)CC2)C(=O)c2ccccc21` [Av, atovaquone] here?
A: reversed

Q: And the “fibrotic area (Masson's trichrome and Picrosirius Red staining)” value ([1]; left lobe)?
A: effectively reduces

Q: What about the “hydroxyproline content (degree of fibrosis)” value ([1]; right lobe) of the same compound?
A: inhibits the progression of fibrosis

Q: What about the “SOCE in T cells” value (CRAC channel) of the same compound?
A: significantly reduces
